{
  "source": "patent US11932877B2",
  "about": "“Human fibrolamellar hepatocellular carcinomas (hFL-HCCs)” (priority 2015, dated 2024)",
  "tested_on": "hFL-HCC cells of TU-2010",
  "assay": "Cell proliferation assay (WST-1) on monolayer cultures of hFL-HCC cells",
  "assay_type": "cell-based, human",
  "conditions": "2 μM and 10 μM, drug added for 3 days",
  "protocol": "For cell proliferation assays, 3×10^4 hFL-HCC cells of TU-2010 were depleted of host mesenchymal cells by magnetic sorting of xenotransplantable tumor cell suspension and then were seeded into each well of a 96-well plate and cultured overnight with Kubota's Medium+5% FBS. After 16-20 hours, the specific hedgehog inhibitor Vismodegib (GDC-0449) (Selleckchem Bio, Houston, TX) or the histone deacetylase (HDAC) inhibitors, suberic bis-hydroxamic acid (SBHA) or suberoylanilide hydroxamic acid (SAHA) (SIGMA, St. Louis, MO) were added for 3 days. Cell proliferation was evaluated using the Cell Proliferation Reagent WST-1 (Roche Applied Science, Mannheim, Germany). After incubation at 37° C. for 2 hours, the absorbance at 450 nm was measured.",
  "note": "“Also recorded” adds a separate entry of the source.",
  "data": [
    {"compound": "O=C(CCCCCCC(=O)Nc1ccccc1)NO", "note": "[SAHA, suberoylanilide hydroxamic acid]", "values": [
      {"measurement": "inhibitory effect on hFL-HCC cell survival and growth", "value": "strongly inhibited; also recorded: strong inhibitory effects"}
    ]}
  ]
}
